Data as given in the supplement of paper PMC4604168 (melanoma cell lines).
This is one part of the list. Repeats are few or missing, and single values can be far off.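 Imaging used 1,536-well plates; nuclei positive for cleaved PARP by antibody were divided by total DNA-stained nuclei to yield the apoptosis fraction. Doses for screening kept most cells viable, and cell lines differ markedly in resting and induced cleaved-PARP levels.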

Key:
Test in all cases: cleaved PARP positive nuclei fraction relative to DMSO control; melanoma cells; higher = more apoptosis
Conditions in all cases: library dose: low library concentration; 72 h
[1] = tested on: 501Mel
[2] = tested on: A101D
[3] = tested on: A2058
[4] = tested on: A375
[5] = tested on: C32
[6] = tested on: CBRC008 (line from a melanoma biopsy)
[7] = tested on: CBRC014 (line from a melanoma biopsy)
[8] = tested on: CBRC016 (line from a melanoma biopsy)
[9] = tested on: CBRC017 (line from a melanoma biopsy)

SMILES	cleaved PARP positive nuclei fraction [1]	cleaved PARP positive nuclei fraction [2]	cleaved PARP positive nuclei fraction [3]	cleaved PARP positive nuclei fraction [4]	cleaved PARP positive nuclei fraction [5]	cleaved PARP positive nuclei fraction [6]	cleaved PARP positive nuclei fraction [7]	cleaved PARP positive nuclei fraction [8]	cleaved PARP positive nuclei fraction [9]
N#CC[C@H](C1CCCC1)n1cc(-c2ncnc3[nH]ccc23)cn1 [ruxolitinib] + O=C(O)[C@@H]1[O][Sb](=[O])([O][Sb]2(=[O])[O][C@H]([C@H](O)CO)[C@H](O)[C@H](C(=O)O)[O]2)[O][C@H]([C@H](O)CO)[C@@H]1O [stibogluconate] (first compound 1 µM, partner dose 2 µM)	74%	304%	69.2%	63.8%	78.7%	99.4%	87.3%	95%	85%
Cc1cn(-c2cc(NC(=O)c3ccc(C)c(Nc4nccc(-c5cccnc5)n4)c3)cc(C(F)(F)F)c2)cn1 [nilotinib] + Nc1ccn([C@@H]2O[C@H](CO)[C@@H](O)C2(F)F)c(=O)n1 [gemcitabine] (first compound 0.2 µM, partner dose 0.0004 µM)	292%	93.1%	54.9%	180%	78.4%	35.4%	117%	40.2%	79.6%
Cc1cc(Nc2cc(N3CCN(C)CC3)nc(Sc3ccc(NC(=O)C4CC4)cc3)n2)n[nH]1 [Tozasertib] + O=C(Nc1cc(C(F)(F)F)cc(C(F)(F)F)c1)c1cc(Cl)ccc1O [IMD0354] (first compound 0.006 µM, partner dose 0.016 µM)	78.9%	206%	199%	199%	91%	55.4%	105%	133%	64.3%
O=C(/C=C/c1cccnc1)NCCCCC1CCN(C(=O)c2ccccc2)CC1 + COc1ccc(Cl)c(Nc2nc3ccccc3nc2NS(=O)(=O)c2cccc(NC(=O)C(C)(C)N)c2)c1 [XL147] (first compound 0.01 µM, partner dose 0.8 µM)	137%	94.2%	179%	36.4%	71.9%	4270%	118%	705%	436%
Cc1cc(Nc2cc(N3CCN(C)CC3)nc(Sc3ccc(NC(=O)C4CC4)cc3)n2)n[nH]1 [Tozasertib] + O=C(O)c1ccc2c(c1)nc(Nc1cccc(Cl)c1)c1ccncc12 [CX4945] (first compound 0.006 µM, partner dose 0.4 µM)	114%	42.6%	127%	54.2%	156%	40.4%	100%	1110%	131%
COc1cc([C@@H]2c3cc4c(cc3[C@@H](O[C@@H]3O[C@@H]5CO[C@@H](C)O[C@H]5[C@H](O)[C@H]3O)[C@H]3COC(=O)[C@H]23)OCO4)cc(OC)c1O [etoposide] + OCc1c[nH]c2ccccc12 [Indole-3-carbinol] (first compound 0.02 µM, partner dose 0.8 µM)	65.1%	182%	21.8%	86.6%	162%	61.9%	80.9%	80.4%	82.1%
Cc1cn(-c2cc(NC(=O)c3ccc(C)c(Nc4nccc(-c5cccnc5)n4)c3)cc(C(F)(F)F)c2)cn1 [nilotinib] + Nc1ncn([C@H]2C[C@H](O)[C@@H](CO)O2)c(=O)n1 [decitabine] (first compound 0.2 µM, partner dose 0.1 µM)	94%	105%	153%	138%	156%	35.5%	99.7%	75.8%	119%
Cc1ccc(Nc2nccc(N(C)c3ccc4c(C)n(C)nc4c3)n2)cc1S(N)(=O)=O [Pazopanib] + COc1ccc(Cl)c(Nc2nc3ccccc3nc2NS(=O)(=O)c2cccc(NC(=O)C(C)(C)N)c2)c1 [XL147] (first compound 0.4 µM, partner dose 0.8 µM)	83.9%	51.3%	192%	181%	75.6%	256%	135%	124%	125%
CC[C@]1(O)C[C@H]2CN(CCc3c([nH]c4ccccc34)[C@@](C(=O)OC)(c3cc4c(cc3OC)N(C=O)[C@H]3[C@@](O)(C(=O)OC)[C@H](OC(C)=O)[C@]5(CC)C=CCN6CC[C@]43[C@@H]65)C2)C1 [vincristine] + C[C@@H](N)c1ccc(C(=O)Nc2ccnc3[nH]ccc23)cc1 [RKI983] (first compound 0.0001 µM, partner dose 0.4 µM)	169%	259%	4840%	702%	172%	158%	87.4%	193%	198%
Cc1cc(Nc2cc(N3CCN(C)CC3)nc(Sc3ccc(NC(=O)C4CC4)cc3)n2)n[nH]1 [Tozasertib] + C=C(c1ccc(C(=O)O)cc1)c1cc2c(cc1C)C(C)(C)CCC2(C)C [Bexarotene] (first compound 0.006 µM, partner dose 2 µM)	91.4%	100%	93.9%	63%	85.5%	60.9%	84.6%	64.6%	162%
O=C(Nc1cc(C(F)(F)F)cc(C(F)(F)F)c1)c1cc(Cl)ccc1O + CN(c1ncccc1CNc1nc(Nc2ccc3c(c2)CC(=O)N3)ncc1C(F)(F)F)S(C)(=O)=O [PF562271] (first compound 0.016 µM, partner dose 0.08 µM)	34.6%	55.1%	82.4%	88%	75.4%	186%	113%	78.7%	127%
CC[C@]1(O)C[C@H]2CN(CCc3c([nH]c4ccccc34)[C@@](C(=O)OC)(c3cc4c(cc3OC)N(C=O)[C@H]3[C@@](O)(C(=O)OC)[C@H](OC(C)=O)[C@]5(CC)C=CCN6CC[C@]43[C@@H]65)C2)C1 [vincristine] + Cc1cc(Nc2cc(N3CCN(C)CC3)nc(/C=C/c3ccccc3)n2)n[nH]1 [ENMD2076] (first compound 0.0001 µM, partner dose 0.04 µM)	85.9%	216%	1320%	223%	97.9%	159%	111%	139%	111%
CCCCCCCCCCCCCCCCCCOP(=O)([O-])OC1CC[N+](C)(C)CC1 [Perifosine] + Cn1c(Nc2ccc(C(F)(F)F)cc2)nc2cc(Oc3ccnc(-c4ncc(C(F)(F)F)[nH]4)c3)ccc21 [CHIR265] (first compound 0.4 µM, partner dose 0.08 µM)	260%	53.7%	166%	295%	90.4%	57.1%	108%	119%	87.9%
Cc1cc(Nc2cc(N3CCN(C)CC3)nc(Sc3ccc(NC(=O)C4CC4)cc3)n2)n[nH]1 [Tozasertib] + Cn1c(=O)n(-c2ccc(C(C)(C)C#N)cc2)c2c3cc(-c4cnc5ccccc5c4)ccc3ncc21 [NVP-BEZ235] (first compound 0.006 µM, partner dose 0.004 µM)	97.1%	99.6%	139%	88%	143%	52.8%	99.1%	90.8%	73.5%
N#CC[C@H](C1CCCC1)n1cc(-c2ncnc3[nH]ccc23)cn1 [ruxolitinib] + CN1CCN(c2ccc3nc(-c4c(N)c5c(F)cccc5[nH]c4=O)[nH]c3c2)CC1 [Dovitinib] (first compound 1 µM, partner dose 0.1 µM)	96.9%	83.6%	112%	56.2%	70.9%	71.2%	80.1%	253%	84%
COc1cc([C@@H]2c3cc4c(cc3[C@@H](O[C@@H]3O[C@@H]5CO[C@@H](C)O[C@H]5[C@H](O)[C@H]3O)[C@H]3COC(=O)[C@H]23)OCO4)cc(OC)c1O [etoposide] + CN1CCN(c2ccc3nc(-c4c(N)c5c(F)cccc5[nH]c4=O)[nH]c3c2)CC1 [Dovitinib] (first compound 0.02 µM, partner dose 0.1 µM)	120%	225%	205%	112%	91.1%	227%	90.7%	48.8%	90%
N#CC[C@H](C1CCCC1)n1cc(-c2ncnc3[nH]ccc23)cn1 [ruxolitinib] + C[C@@H](Oc1cc(-c2cnn(C3CCNCC3)c2)cnc1N)c1c(Cl)ccc(F)c1Cl [Crizotinib] (first compound 1 µM, partner dose 0.2 µM)	64.4%	72.7%	97.9%	87.4%	65.7%	229%	91.2%	414%	106%
CC[C@]1(O)C[C@H]2CN(CCc3c([nH]c4ccccc34)[C@@](C(=O)OC)(c3cc4c(cc3OC)N(C=O)[C@H]3[C@@](O)(C(=O)OC)[C@H](OC(C)=O)[C@]5(CC)C=CCN6CC[C@]43[C@@H]65)C2)C1 [vincristine] + CN1CCN(c2ccc3nc(-c4c(N)c5c(F)cccc5[nH]c4=O)[nH]c3c2)CC1 [Dovitinib] (first compound 0.0001 µM, partner dose 0.1 µM)	98.8%	253%	518%	286%	269%	68.3%	89.8%	111%	108%
Cc1ccc(Nc2nccc(N(C)c3ccc4c(C)n(C)nc4c3)n2)cc1S(N)(=O)=O [Pazopanib] + C#Cc1cccc(Nc2ncnc3cc(OCCOC)c(OCCOC)cc23)c1 [erlotinib] (first compound 0.4 µM, partner dose 0.8 µM)	70.1%	50.5%	125%	96%	72.9%	312%	107%	204%	113%
O=C(Nc1cc(C(F)(F)F)cc(C(F)(F)F)c1)c1cc(Cl)ccc1O + CS(=O)(=O)c1ccc(C(=O)Nc2ccc(Cl)c(-c3ccccn3)c2)c(Cl)c1 [vismodegib] (first compound 0.016 µM, partner dose 1 µM)	57.7%	58.3%	292%	30.9%	85.9%	203%	108%	162%	171%

Shown with bars between the fields: entries from further up
SMILES | cleaved PARP positive nuclei fraction [1] | cleaved PARP positive nuclei fraction [2] | cleaved PARP positive nuclei fraction [3] | cleaved PARP positive nuclei fraction [4] | cleaved PARP positive nuclei fraction [5] | cleaved PARP positive nuclei fraction [6] | cleaved PARP positive nuclei fraction [7] | cleaved PARP positive nuclei fraction [8] | cleaved PARP positive nuclei fraction [9]
CC[C@]1(O)C[C@H]2CN(CCc3c([nH]c4ccccc34)[C@@](C(=O)OC)(c3cc4c(cc3OC)N(C=O)[C@H]3[C@@](O)(C(=O)OC)[C@H](OC(C)=O)[C@]5(CC)C=CCN6CC[C@]43[C@@H]65)C2)C1 [vincristine] + Cc1cc(Nc2cc(N3CCN(C)CC3)nc(/C=C/c3ccccc3)n2)n[nH]1 [ENMD2076] (first compound 0.0001 µM, partner dose 0.04 µM) | 85.9% | 216% | 1320% | 223% | 97.9% | 159% | 111% | 139% | 111%
CCCCCCCCCCCCCCCCCCOP(=O)([O-])OC1CC[N+](C)(C)CC1 [Perifosine] + Cn1c(Nc2ccc(C(F)(F)F)cc2)nc2cc(Oc3ccnc(-c4ncc(C(F)(F)F)[nH]4)c3)ccc21 [CHIR265] (first compound 0.4 µM, partner dose 0.08 µM) | 260% | 53.7% | 166% | 295% | 90.4% | 57.1% | 108% | 119% | 87.9%
